These are yes or no findings as the source states them, for the method shown. Binding seen in cells or lysates may run through a third protein. Some entries that bind do so weakly or less than the wild type. Tags and fused reporters may be left off the sequences shown.

The chains behind the UniProt entries cited, without tags or fusion partners.
UniProt Q13596: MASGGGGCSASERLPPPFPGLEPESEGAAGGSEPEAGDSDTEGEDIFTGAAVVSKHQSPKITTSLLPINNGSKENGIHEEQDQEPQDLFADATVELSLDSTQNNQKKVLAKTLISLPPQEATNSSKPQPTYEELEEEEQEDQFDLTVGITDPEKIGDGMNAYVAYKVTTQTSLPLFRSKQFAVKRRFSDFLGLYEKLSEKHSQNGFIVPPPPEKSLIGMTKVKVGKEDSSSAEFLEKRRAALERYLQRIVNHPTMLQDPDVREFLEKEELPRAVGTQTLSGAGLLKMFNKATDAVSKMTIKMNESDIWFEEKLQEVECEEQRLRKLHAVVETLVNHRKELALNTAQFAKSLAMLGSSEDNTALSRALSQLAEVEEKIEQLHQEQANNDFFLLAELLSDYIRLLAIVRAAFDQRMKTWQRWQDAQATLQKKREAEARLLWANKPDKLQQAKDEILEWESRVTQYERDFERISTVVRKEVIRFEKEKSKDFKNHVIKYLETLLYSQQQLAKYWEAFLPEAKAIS

The target in this assay is T1, TMEM16K-V5-GFP11 (mouse) (UniProt Q8BH79).
T1 sequence: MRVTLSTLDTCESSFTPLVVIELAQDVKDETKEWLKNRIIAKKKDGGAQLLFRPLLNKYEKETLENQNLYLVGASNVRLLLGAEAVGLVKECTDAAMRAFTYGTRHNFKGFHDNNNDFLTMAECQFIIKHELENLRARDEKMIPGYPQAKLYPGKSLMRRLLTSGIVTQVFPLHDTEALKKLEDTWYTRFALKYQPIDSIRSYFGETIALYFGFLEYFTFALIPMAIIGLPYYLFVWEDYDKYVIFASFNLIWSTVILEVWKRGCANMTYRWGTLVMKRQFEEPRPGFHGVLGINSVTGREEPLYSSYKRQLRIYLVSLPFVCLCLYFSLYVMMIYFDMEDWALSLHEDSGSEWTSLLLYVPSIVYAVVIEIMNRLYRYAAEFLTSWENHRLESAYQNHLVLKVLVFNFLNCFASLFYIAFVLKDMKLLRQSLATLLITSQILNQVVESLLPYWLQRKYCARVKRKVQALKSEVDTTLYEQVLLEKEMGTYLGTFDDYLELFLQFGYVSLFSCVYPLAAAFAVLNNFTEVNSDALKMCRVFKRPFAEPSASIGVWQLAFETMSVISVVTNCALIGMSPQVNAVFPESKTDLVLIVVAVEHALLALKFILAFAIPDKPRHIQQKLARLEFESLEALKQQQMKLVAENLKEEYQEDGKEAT
Nature of the assay: split reporter; split-GFP: COS-7 cells double transfected with a GFP11-tagged and a GFP(1-10)-tagged construct, GFP channel read by confocal microscopy.

For “SNX1 tagged with the GFP(1-10) fragment (from UniProt Q13596 1-522)”, the binding result was “no binding”.

Take “VPS26 tagged with the GFP(1-10) fragment (from UniProt O75436 1-327)”: the binding entry is listed as “no binding”.

B1: OSBPL11 tagged with the GFP(1-10) fragment (protein, UniProt Q9BXB4 1-747)
chain: MQGGEPVSTMKVSESEGKLEGQATAVTPNKNSSCGGGISSSSSSRGGSAKGWQYSDHMENVYGYLMKYTNLVTGWQYRFFVLNNEAGLLEYFVNEQSRNQKPRGTLQLAGAVISPSDEDSHTFTVNAASGEQYKLRATDAKERQHWVSRLQICTQHHTEAIGKNNPPLKSRSFSLASSSNSPISQRRPSQNAISFFNVGHSKLQSLSKRTNLPPDHLVEVREMMSHAEGQQRDLIRRIECLPTSGHLSSLDQDLLMLKATSMATMNCLNDCFHILQLQHASHQKGSLPSGTTIEWLEPKISLSNHYKNGADQPFATDQSKPVAVPEEQPVAESGLLAREPEEINADDEIEDTCDHKEDDLGAVEEQRSVILHLLSQLKLGMDLTRVVLPTFILEKRSLLEMYADFMSHPDLFIAITNGATAEDRMIRFVEYYLTSFHEGRKGAIAKKPYNPIIGETFHCSWKMPKSEVASSVFSSSSTQGVTNHAPLSGESLTQVGSDCYTVRFVAEQVSHHPPVSGFYAECTERKMCVNAHVWTKSKFLGMSIGVTMVGEGILSLLEHGEEYTFSLPCAYARSILTVPWVELGGKVSVNCAKTGYSASITFHTKPFYGGKLHRVTAEVKHNITNTVVCRVQGEWNSVLEFTYSNGETKYVDLTKLAVTKKRVRPLEKQDPFESRRLWKNVTDSLRESEIDKATEHKHTLEERQRTEERHRTETGTPWKTKYFIKEGDGWVYHKPLWKIIPTTQPAE
With B1, the binding entry is recorded as “no binding”.

B2: TMEM16K-V5-GFP11 (protein, UniProt Q8BH79 1-659)
chain: MRVTLSTLDTCESSFTPLVVIELAQDVKDETKEWLKNRIIAKKKDGGAQLLFRPLLNKYEKETLENQNLYLVGASNVRLLLGAEAVGLVKECTDAAMRAFTYGTRHNFKGFHDNNNDFLTMAECQFIIKHELENLRARDEKMIPGYPQAKLYPGKSLMRRLLTSGIVTQVFPLHDTEALKKLEDTWYTRFALKYQPIDSIRSYFGETIALYFGFLEYFTFALIPMAIIGLPYYLFVWEDYDKYVIFASFNLIWSTVILEVWKRGCANMTYRWGTLVMKRQFEEPRPGFHGVLGINSVTGREEPLYSSYKRQLRIYLVSLPFVCLCLYFSLYVMMIYFDMEDWALSLHEDSGSEWTSLLLYVPSIVYAVVIEIMNRLYRYAAEFLTSWENHRLESAYQNHLVLKVLVFNFLNCFASLFYIAFVLKDMKLLRQSLATLLITSQILNQVVESLLPYWLQRKYCARVKRKVQALKSEVDTTLYEQVLLEKEMGTYLGTFDDYLELFLQFGYVSLFSCVYPLAAAFAVLNNFTEVNSDALKMCRVFKRPFAEPSASIGVWQLAFETMSVISVVTNCALIGMSPQVNAVFPESKTDLVLIVVAVEHALLALKFILAFAIPDKPRHIQQKLARLEFESLEALKQQQMKLVAENLKEEYQEDGKEAT
With B2, the binding entry is recorded as “binds”.

B3: OSBPL8 tagged with the GFP(1-10) fragment (protein, UniProt Q9BZF1 1-889)
chain: MEGGLADGEPDRTSLLGDSKDVLGPSTVVANSDESQLLTPGKMSQRQGKEAYPTPTKDLHQPSLSPASPHSQGFERGKEDISQNKDESSLSMSKSKSESKLYNGSEKDSSTSSKLTKKESLKVQKKNYREEKKRATKELLSTITDPSVIVMADWLKIRGTLKSWTKLWCVLKPGVLLIYKTQKNGQWVGTVLLNACEIIERPSKKDGFCFKLFHPLEQSIWAVKGPKGEAVGSITQPLPSSYLIIRATSESDGRCWMDALELALKCSSLLKRTMIREGKEHDLSVSSDSTHVTFYGLLRANNLHSGDNFQLNDSEIERQHFKDQDMYSDKSDKENDQEHDESDNEVMGKSEESDTDTSERQDDSYIEPEPVEPLKETTYTEQSHEELGEAGEASQTETVSEENKSLIWTLLKQVRPGMDLSKVVLPTFILEPRSFLDKLSDYYYHADFLSEAALEENPYFRLKKVVKWYLSGFYKKPKGLKKPYNPILGETFRCLWIHPRTNSKTFYIAEQVSHHPPISAFYVSNRKDGFCLSGSILAKSKFYGNSLSAILEGEARLTFLNRGEDYVMTMPYAHCKGILYGTMTLELGGTVNITCQKTGYSAILEFKLKPFLGSSDCVNQISGKLKLGKEVLATLEGHWDSEVFITDKKTDNSEVFWNPTPDIKQWRLIRHTVKFEEQGDFESEKLWQRVTRAINAKDQTEATQEKYVLEEAQRQAARDRKTKNEEWSCKLFELDPLTGEWHYKFADTRPWDPLNDMIQFEKDGVIQTKVKHRTPMVSVPKMKHKPTRQQKKVAKGYSSPEPDIQDSSGSEAQSVKPSTRRKKGIELGDIQSSIESIKQTQEEIKRNIMALRNHLVSSTPATDYFLQQKDYFIIFLLILLQVIINFMFK
Regarding B3, the binding result is recorded as “no binding”.

B4: OSBPL9 tagged with the GFP(1-10) fragment (protein, UniProt Q96SU4 1-736)
chain: MASIMEGPLSKWTNVMKGWQYRWFVLDYNAGLLSYYTSKDKMMRGSRRGCVRLRGAVIGIDDEDDSTFTITVDQKTFHFQARDADEREKWIHALEETILRHTLQLQGLDSGFVPSVQDFDKKLTEADAYLQILIEQLKLFDDKLQNCKEDEQRKKIETLKETTNSMVESIKHCIVLLQIAKDQSNAEKHADGMISTINPVDAIYQPSPLEPVISTMPSQTVLPPEPVQLCKSEQRPSSLPVGPVLATLGHHQTPTPNSTGSGHSPPSSSLTSPSHVNLSPNTVPEFSYSSSEDEFYDADEFHQSGSSPKRLIDSSGSASVLTHSSSGNSLKRPDTTESLNSSLSNGTSDADLFDSHDDRDDDAEAGSVEEHKSVIMHLLSQVRLGMDLTKVVLPTFILERRSLLEMYADFFAHPDLFVSISDQKDPKDRMVQVVKWYLSAFHAGRKGSVAKKPYNPILGEIFQCHWTLPNDTEENTELVSEGPVPWVSKNSVTFVAEQVSHHPPISAFYAECFNKKIQFNAHIWTKSKFLGMSIGVHNIGQGCVSCLDYDEHYILTFPNGYGRSILTVPWVELGGECNINCSKTGYSANIIFHTKPFYGGKKHRITAEIFSPNDKKSFCSIEGEWNGVMYAKYATGENTVFVDTKKLPIIKKKVRKLEDQNEYESRSLWKDVTFNLKIRDIDAATEAKHRLEERQRAEARERKEKEIQWETRLFHEDGECWVYDEPLLKRLGAAKH
For B4, the binding entry is given as “no binding”.

The values above are taken from publication PMC7335067.
